## Screening data, single-dose tests

Sequences of proteins named here, by UniProt entry; tags and fusion partners are left off. Residues count along the entry.
UniProt Q4DA54, 1-478: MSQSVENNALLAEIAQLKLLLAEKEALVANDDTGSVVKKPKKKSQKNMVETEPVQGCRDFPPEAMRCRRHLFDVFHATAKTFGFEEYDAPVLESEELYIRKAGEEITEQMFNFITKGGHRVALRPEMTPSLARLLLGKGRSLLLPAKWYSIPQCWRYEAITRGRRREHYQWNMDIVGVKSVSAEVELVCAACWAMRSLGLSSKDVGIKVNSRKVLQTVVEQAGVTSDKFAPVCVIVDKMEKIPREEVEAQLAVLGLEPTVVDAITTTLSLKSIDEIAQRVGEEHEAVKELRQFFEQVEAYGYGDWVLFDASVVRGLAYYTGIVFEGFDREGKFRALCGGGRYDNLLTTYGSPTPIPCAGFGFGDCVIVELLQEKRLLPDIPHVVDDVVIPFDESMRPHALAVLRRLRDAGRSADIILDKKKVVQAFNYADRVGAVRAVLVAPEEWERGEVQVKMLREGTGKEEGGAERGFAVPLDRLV
UniProt P9WNZ1, whole entry: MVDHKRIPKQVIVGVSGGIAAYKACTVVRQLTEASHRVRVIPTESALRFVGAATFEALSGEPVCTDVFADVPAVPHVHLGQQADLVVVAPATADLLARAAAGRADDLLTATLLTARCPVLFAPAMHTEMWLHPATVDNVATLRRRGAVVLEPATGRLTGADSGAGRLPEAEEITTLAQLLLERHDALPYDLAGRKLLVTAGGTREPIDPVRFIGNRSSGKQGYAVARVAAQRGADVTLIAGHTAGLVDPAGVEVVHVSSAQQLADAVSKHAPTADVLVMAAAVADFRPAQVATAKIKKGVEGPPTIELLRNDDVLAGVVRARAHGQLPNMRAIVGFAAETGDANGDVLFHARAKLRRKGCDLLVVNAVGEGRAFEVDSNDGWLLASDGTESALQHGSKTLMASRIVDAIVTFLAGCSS

The filed quantity is “Percent Effect” (%).
How 0% and 100% were set is not recorded. Most values in the screen are low, and negative values occur.
This is an unselected part of the compounds tested.
Two or more numbers in one place are separate tests of the same structure; such repeats can differ widely.
A dash means the value is not listed here; it may have been measured.

Toxoplasma: 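Assay of Toxoplasma gondii numbers, read through their beta-galactosidase reporter with a colour substrate. Tested at 10 µM. Higher reads as fewer parasites (inferred from which compounds were picked for retests). Of about 67,000 compounds tested this way, about 260 (0.38%) reached 50% or more in at least one test.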
TcHisRS: 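Histidine-tRNA ligase, Trypanosoma cruzi CL Brener (UniProt Q4DA54). Enzyme assay of histidyl-tRNA synthetase; the read-out is not stated. Concentration: 30 µM. Higher reads as stronger inhibition (inferred: compounds with an IC50 in retests scored well above the rest). About 69,000 compounds were tested under these conditions; 0.045% (about 31) showed 50% or more at least once.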
CoaBC: 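Enzyme assay of CoaBC with a phosphate dye (Biomol Green) read at 650 nm. Target: Coenzyme A biosynthesis protein CoaBC, Mycobacterium tuberculosis (UniProt P9WNZ1). Concentration: 30 µM. Higher reads as stronger inhibition, judged from the few compounds that gave an IC50. Most strong results did not repeat in a second test. About 67,000 compounds were tested under these conditions; 0.06% (about 40) showed 50% or more at least once.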
Leishmania in macrophages: 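Cell assay of Leishmania donovani living inside macrophages; the read-out is not stated. Tested at 30 µM. Higher reads as stronger inhibition (inferred: compounds with an IC50 in retests scored well above the rest). Of about 69,000 compounds tested this way, about 1,000 (1.5%) reached 50% or more in at least one test.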

SMILES	Toxoplasma	TcHisRS	CoaBC	Leishmania in macrophages
Cc1cc(CS(=O)(=O)NC2CCCc3ccccc32)on1 (centres undefined)	26.86	2.762	6.865	16.48
O=C(NC[C@H]1OC[C@@H](NC2COC2)[C@@H]1O)c1cccs1	2.394	10.89	8.804	17.79
Cc1cccc(C)c1OCC(=O)NS(=O)(=O)c1c(C)noc1C	9.937	2.053	1.842	12.57
CCc1cc(NC(=O)C(c2cccc(F)c2)N2CCOCC2)[nH]n1 (centres undefined)	11.4	6.667	9.091	-0.9166
CCOc1ccc(Cl)cc1C1CCCN1 (centres undefined)	-	-1.087	-2.024	-
CCN(C)c1ncnc2c1CCN(C(=O)N(C)C)CC2	-	3.96	-2.121	-
CN1CCC(N(CCc2ccccc2)C(=O)COCC2CCCO2)CC1 (centres undefined)	0.6203	3.704	-5.765	24.91
[H][C@@]12CCN(C(=O)Cc3ccsc3)C[C@]1([H])[C@H](c1nnc(C)o1)CCO2	-0.14	-	-	8.809
Cc1nnn2c1COC(CNCc1nccs1)C2.O=C(O)C(F)(F)F (centres undefined)	4.198	-	-	39.98
Cc1nn(C(C)C)c(C)c1CN1CCC(c2cc(C(C)C)n[nH]2)CC1	5.487	10.31	0.6593	28.68
Cc1cnn(CC2CCCCN2C(=O)c2ccc3nnc(C)n3c2)c1 (centres undefined)	-7.501	0.3774	6.154	-12.3
Cc1nc(CO[C@H]2CN(C(=O)c3ccc[nH]3)[C@@H]3COC[C@H]23)cs1	-	3.093	3.448	-
COc1ccc(-c2nc(C#N)c(N(C)C)o2)cc1S(=O)(=O)N(C)C	9.19	0	-7.135	6.957
c1csc(CN2C[C@@H]3OCCN(CC4CCCO4)[C@@H]3C2)c1 (some centres undefined)	-	2.479	-4.086	-
OCCC[C@@H]1CN(c2ncc(Cl)cc2Cl)CC[C@@H]1N1CCOCC1	10.83	1.657	8.482	-28.89
CN1CCCCC1(C)C(=O)N1CCC(c2ccccn2)CC1 (centres undefined)	-15.72	4.52	-14.04	9.921
[H][C@@]12CCCN[C@]1([H])CN(C(=O)NCC(C)C)C2	-18.26	-	-	1.1
c1nc2n(n1)CC(NCc1csc(-c3ccsc3)n1)CC2 (centres undefined)	-14.96	0	-2.332	23.35
Cc1cnn(C2CN(Cc3noc(-c4ccccc4)n3)C2)c1	-8.945	17.46	-18.39	0.39
CS(=O)(=O)N1CCC2(COCc3cnc(-c4ccccc4)nc32)C1 (centres undefined)	6.329	3.96	5.71	20.74
COCCn1c(=O)n(Cc2ccccc2C)c2cc(C(=O)O)ccc21	19.25	1.176	-3.931	15.77
CN(Cc1ccc(F)cc1)C(=O)CN1CCCCC1Cn1cncn1 (centres undefined)	1.311	1.786	0.609	-10.27
COCCCC1CCCCN1C(=O)c1ccc(SCCO)cc1 (centres undefined)	-3.358	-1.685	-11.47	-2.039
OC1(CNCCc2csc(-c3ncccn3)n2)CCNC1 (centres undefined)	-2.34	2.155	-1.901	43.1
[H][C@@]12CN(Cc3cccc(C)n3)C[C@]1([H])OCCN2S(=O)(=O)N(C)C	-4.22	-	-	6.057 & 9.379
CCNc1ccc(-c2ccnc3c2ccn3C)nn1	-4.585	1.676	4.839	5.249
CN1C[C@H](O)C[C@H]1c1nc(-c2ccc3c(c2)OCO3)no1	5.082	1.493	13.16	8.917
CN(C(=O)c1ccccc1N(C)S(C)(=O)=O)c1ccc(C(C)(C)C)cc1	5.508	8.287	2.166	-24.48
O=C(CCc1ccccc1Br)N1CC(S(=O)(=O)C2CCCCC2)C1	7.336	1.031	3.594	8.291 & 11.86
CNc1nc(CNC(=O)Nc2cccc(C(C)OC)c2)cs1 (centres undefined)	8.407	7.872	0.1245	27.9
[H][C@@]12CN(c3ncnc4sccc34)C[C@]1(C(=O)O)CN(CC1CC1)C2=O	-42.44	-	-	6.417
Cc1ccc(NC(=O)NC(C)c2nc[nH]n2)cc1 (centres undefined)	-1.967	1.695	3.084	15.13
O=C(O)C(F)(F)F.O=C(O)C(F)(F)F.[H][C@@]12CN(Cc3cnn(C)c3)C[C@]1([H])OCCN2c1ccc(C)nn1	1.452	-	-	0.8885
CC1CCN(CCCNS(=O)(=O)c2cccc(F)c2)CC1.Cl	14.25	-	-	41.37
CC1CCN(c2ccc(C(=O)N3CCCC3c3nncn3C)cn2)CC1 (centres undefined)	-0.2295	3.867	2.166	-19.85
O=C1CC[C@@H]2[C@@H](CCN2C(=O)c2ccsc2)N1Cc1ccncc1	-	1.97	1.269	-
O=C(Cc1cccnc1)N1C[C@@H]2CC[C@H](C1)N(Cc1ccccc1)C2=O	-	2.326	-2.575	-
COCc1cnc2n1CCN(C(=O)c1ocnc1C)C2C (centres undefined)	7.788	9.091	3.361	14.69
Cc1ccsc1CN1CCC2(CC1)CC(OCc1cccnc1)CO2.O=C(O)C(F)(F)F.O=C(O)C(F)(F)F (centres undefined)	23.31	-	-	15.89 & -50.99
[H][C@]12CC[C@]([H])(CN(C(=O)Cn3c(C)cc(C)nc3=O)C1)N(CCC)C2	11.08	-	-	22.04
Cc1nnc(SCC(=O)NCC(c2ccccc2Cl)N(C)C)s1 (centres undefined)	-62.06	1.948	0.3628	-11.66
Cc1c(C(=O)NCC2CCN(Cc3ccco3)C2)[nH]c2ccccc12 (centres undefined)	-8.873	15.56	-10.5	20.91
CCc1nnc(N2CCN(c3ccccc3)C(=O)C2)o1	1.148	2.273	4.925	15.04
CCc1cnc(N2C[C@@H]3[C@@H](C(=O)NCC(C)C)CCS(=O)(=O)[C@@H]3C2)nc1	-	5.464	5.447	-
Cc1ccc(C)c(NS(=O)(=O)c2cc3c(c(C(=O)O)c2)OCCO3)c1	-7.704	-0.578	3.959	24.63
CC(C)[C@H]1COC(=O)N1CC(=O)N(C)CCCn1cccn1	-7.346	-7.027	11.97	-1.16
Cc1ccc(F)cc1NC(=O)CNc1cccc2c1CCCC2	-11.19	5.814	3.004	20.79
O=C(NC1CCCc2nc(N3CCOCC3)ncc21)C1CCCC1 (centres undefined)	-9.923	-1.064	0.4902	-3.782

The values are deposited in ChEMBL (CHEMBL3988442, “University of Dundee, Small-Polar-MMV Screening Library” (2021)).